Consider one molecule from article PMC10680284.

Chains of the proteins cited; added tags and fusions are not shown.
UniProt P40763: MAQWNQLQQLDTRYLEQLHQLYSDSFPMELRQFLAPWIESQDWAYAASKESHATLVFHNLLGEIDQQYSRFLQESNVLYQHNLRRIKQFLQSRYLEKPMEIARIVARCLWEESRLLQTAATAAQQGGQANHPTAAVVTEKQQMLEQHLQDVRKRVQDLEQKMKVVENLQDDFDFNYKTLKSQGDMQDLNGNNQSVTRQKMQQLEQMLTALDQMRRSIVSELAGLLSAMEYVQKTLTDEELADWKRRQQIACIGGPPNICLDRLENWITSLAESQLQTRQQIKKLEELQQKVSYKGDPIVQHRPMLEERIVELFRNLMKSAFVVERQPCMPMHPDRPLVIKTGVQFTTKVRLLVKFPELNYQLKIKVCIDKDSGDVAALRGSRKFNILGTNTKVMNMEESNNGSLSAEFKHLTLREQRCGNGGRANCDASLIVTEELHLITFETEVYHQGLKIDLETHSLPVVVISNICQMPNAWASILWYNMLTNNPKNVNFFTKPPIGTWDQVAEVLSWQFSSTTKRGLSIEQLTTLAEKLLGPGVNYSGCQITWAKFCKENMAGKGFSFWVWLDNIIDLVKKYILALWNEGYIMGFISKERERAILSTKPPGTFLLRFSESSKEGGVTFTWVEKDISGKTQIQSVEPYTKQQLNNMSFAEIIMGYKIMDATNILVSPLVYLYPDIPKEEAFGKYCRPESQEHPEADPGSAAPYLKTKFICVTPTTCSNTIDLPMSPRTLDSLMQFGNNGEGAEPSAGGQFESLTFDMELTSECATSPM

No constants are given. Whether binding was seen depends on the method and setting. In cells and extracts the contact can be indirect. Some binding calls cover weakened binding; strength is not graded here.

The assay addresses STAT3 (human (endogenous in Lovo and HCT-116)) (UniProt P40763). The experiment in a line: co-IP; endogenous proteins in Lovo and HCT-116 cell lysates; IP with antibody against STAT3 or NLK, normal rabbit IgG as control; protein A and protein G; western blot.

B1: NLK (protein, UniProt Q9UBE8 1-527)
chain: MSLCGARANAKMMAAYNGGTSAAAAGHHHHHHHHLPHLPPPHLHHHHHPQHHLHPGSAAAVHPVQQHTSSAAAAAAAAAAAAAMLNPGQQQPYFPSPAPGQAPGPAAAAPAQVQAAAAATVKAHHHQHSHHPQQQLDIEPDRPIGYGAFGVVWSVTDPRDGKRVALKKMPNVFQNLVSCKRVFRELKMLCFFKHDNVLSALDILQPPHIDYFEEIYVVTELMQSDLHKIIVSPQPLSSDHVKVFLYQILRGLKYLHSAGILHRDIKPGNLLVNSNCVLKICDFGLARVEELDESRHMTQEVVTQYYRAPEILMGSRHYSNAIDIWSVGCIFAELLGRRILFQAQSPIQQLDLITDLLGTPSLEAMRTACEGAKAHILRGPHKQPSLPVLYTLSSQATHEAVHLLCRMLVFDPSKRISAKDALAHPYLDEGRLRYHTCMCKCCFSTSTGRVYTSDFEPVTNPKFDDTFEKNLSSVRQVKEIIHQFILEQQKGNRVPLCINPQSAAFKSFISSTVAQPSEMPPSPLVWE
Regarding B1, the binding result is listed as “binds”.
